# Measurements taken from US20230181614A1, “ADMINISTRATION OF CITICOLINE TO IMPROVE COGNITIVE PERFORMANCE, ATTENTIONAL PERFORMANCE, AND MOTOR FUNCTION” (KYOWA HAKKO BIO CO., LTD., priority 2014, published 2023).
# At least one structure is not confirmed: it was looked up by name or label, or the drawing left a doubt.
# Legend:
# Format in all cases: in vivo, human
# [1] = tested on: Healthy subjects, ages 13-18; experiment: Wisconsin Card Sorting Task (WCST); conditions: visit 3
# Description: Study participants were screened by telephone prior to study enrollment. Healthy subjects, ages 13-18, with no significant medical conditions and no history of co-morbid psychiatric disorder, current Axis I or II diagnosis, or previous participation in a pharmacotherapeutic trial, were selected. Use of any psychotropic medication or any previous head injury resulting in loss of consciousness for 5 or more minutes were used as exclusion criteria. While no participant met criteria for a neuropsychiatric disorder at enrollment, clinical assessments were still completed throughout the study to evaluate changes in mood state. In addition, self-reports of sleep habits, lifestyle, and exercise routines were also administered at baseline as well as at each study visit to assess changes in health habits during study participation. Following the completion of Visit 1 assessment, participants were given their 28-day supply of citicoline (250 mg or 500 mg) or placebo, which was randomly assigned. They were instructed to take one capsule a day every day for the next 28 days. Visit 2 occurred fourteen days after Visit 1. At Visit 2, the remaining study pills were counted and participant dosage calendars were checked to ensure compliance with the protocol. Additional neuropsychological measures and clinical assessments were administered during this visit. Participants returned for Visit 3 fourteen days later, on the 28th day of their study participation. The pill bottle and the dosage calendar were collected from each participant. Urine and blood were again obtained. Participants also participated in similar clinical and neuropsychological testing and clinical measures that were given during visit 1. The WCST assess a person’s ability to form abstract concepts, utilize feedback, and to shift and maintain set. […] The WCST involves 4 stimulus cards that vary in color, geometric form, and number. Without knowing the criterion, participants are asked to match cards from a deck to the stimulus cards. After the participant places each card, they are told whether they are correct or incorrect and should change the element they are matching based on this feedback. […] The WCST was given on the third visit of the study.
# [2] = tested on: Healthy subjects, ages 13-18; experiment: Finger Tap Test (motor speed and control); conditions: for Finger Tap mean dominant and non-dominant hand, within-group change: p<0.01, p<0.01
# Protocol: The citicoline-treated group (N=51) were administered 250 mg/day (N=24) or 500 mg/day (N=27). Three finger tap tests were administered over a period of 28 days to measure motor speed and control. Results are expressed as mean ± SD. Statistical analysis was performed using Student’s t test. The p<0.05 was considered statistically significant. Study participants were screened by telephone prior to study enrollment. Healthy subjects, ages 13-18, with no significant medical conditions and no history of co-morbid psychiatric disorder, current Axis I or II diagnosis, or previous participation in a pharmacotherapeutic trial, were selected. Use of any psychotropic medication or any previous head injury resulting in loss of consciousness for 5 or more minutes were used as exclusion criteria. While no participant met criteria for a neuropsychiatric disorder at enrollment, clinical assessments were still completed throughout the study to evaluate changes in mood state. In addition, self-reports of sleep habits, lifestyle, and exercise routines were also administered at baseline as well as at each study visit to assess changes in health habits during study participation. Following the completion of Visit 1 assessment, participants were given their 28-day supply of citicoline (250 mg or 500 mg) or placebo, which was randomly assigned. They were instructed to take one capsule a day every day for the next 28 days. Visit 2 occurred fourteen days after Visit 1. At Visit 2, the remaining study pills were counted and participant dosage calendars were checked to ensure compliance with the protocol. Additional neuropsychological measures and clinical assessments were administered during this visit. Participants returned for Visit 3 fourteen days later, on the 28th day of their study participation. The pill bottle and the dosage calendar were collected from each participant. Urine and blood were again obtained. Participants also participated in similar clinical and neuropsychological testing and clinical measures that were given during visit 1. The finger tap test is used to measure motor speed and control. It is a common assessment measure administered by neuropsychologists to detect cognitive impairment. During the finger tap test, the participant is instructed to use his/her index finger to press a lever attached to a mechanical counter as many times as s/he can within the designated time period. The participant is instructed to move only their index finger, not the entire hand. The same process is completed using the index finger of the dominant and non-dominant hand. The finger tap test was administered at each of the three visits.
# [3] = tested on: Healthy subjects, ages 13-18; experiment: Continuous Performance Test (CPT)
# Description: Study participants were screened by telephone prior to study enrollment. Healthy subjects, ages 13-18, with no significant medical conditions and no history of co-morbid psychiatric disorder, current Axis I or II diagnosis, or previous participation in a pharmacotherapeutic trial, were selected. Use of any psychotropic medication or any previous head injury resulting in loss of consciousness for 5 or more minutes were used as exclusion criteria. While no participant met criteria for a neuropsychiatric disorder at enrollment, clinical assessments were still completed throughout the study to evaluate changes in mood state. In addition, self-reports of sleep habits, lifestyle, and exercise routines were also administered at baseline as well as at each study visit to assess changes in health habits during study participation. Following the completion of Visit 1 assessment, participants were given their 28-day supply of citicoline (250 mg or 500 mg) or placebo, which was randomly assigned. They were instructed to take one capsule a day every day for the next 28 days. Visit 2 occurred fourteen days after Visit 1. At Visit 2, the remaining study pills were counted and participant dosage calendars were checked to ensure compliance with the protocol. Additional neuropsychological measures and clinical assessments were administered during this visit. Participants returned for Visit 3 fourteen days later, on the 28th day of their study participation. The pill bottle and the dosage calendar were collected from each participant. Urine and blood were again obtained. Participants also participated in similar clinical and neuropsychological testing and clinical measures that were given during visit 1. The CPT is a test of sustained attention that has been adapted for computerized administration. The test requires participants to attend vigilantly to a series of target and distracter stimuli for a 14-minute duration. […] The CPT was administered at all three visits.
smiles,measurement,setting,value
"C[N+](C)(C)CCOP(=O)(O)OP(=O)([O-])OC[C@H]1O[C@@H](n2ccc(N)nc2=O)[C@H](O)[C@@H]1O [citicoline, Cytidine 5′-diphosphocholine]","WCST total cards used, categories achieved, total errors, perseverative errors, trials to get into category, trials to complete categories, between groups","[1]; 250 mg/day vs 500 mg/day, p=0.81, 0.39, 0.87, 0.68, 0.68, 0.84",no significant differences
same,"WCST total cards used, categories achieved, total errors, perseverative errors, trials to get into category, trials to complete categories, between groups","[1]; 250 mg/day vs Placebo, p=0.30, 0.16, 0.14, 0.44, 0.25, 0.88",no significant differences
same,"WCST total cards used, categories achieved, perseverative errors, trials to get into category, trials to complete categories, between groups","[1]; Placebo vs 500 mg/day, p=0.42, 0.39, 0.25, 0.18, 0.72",no significant differences
same,"WCST total errors, 500 mg/day relative to Placebo",[1]; p=0.08,trend toward increased total errors
same,"WCST total cards used, categories achieved, total errors, perseverative errors, trials to get into category, trials to complete categories, three groups","[1]; p=0.28, 0.14, 0.13, 0.26, 0.22, 0.47",no significant differences
same,"Finger Tap non-dominant hand difference score, between groups","[2]; 250 mg/day vs 500 mg/day, visit 1 to 3, p=0.78",no significant differences
same,"Finger Tap mean dominant and non-dominant hand, between groups","[2]; 250 mg/day vs 500 mg/day, visit 3, p=0.75, p=0.96",no significant differences
same,"Finger Tap non-dominant hand difference score, between groups","[2]; 250 mg/day vs Placebo, visit 1 to 3, p=0.47",no significant differences
same,"Finger Tap mean dominant and non-dominant hand, between groups","[2]; 250 mg/day vs Placebo, visit 3, p=0.88, p=0.85",no significant differences
same,"Finger Tap mean dominant and non-dominant hand, within-group change","[2]; 250 mg/day, visit 1 to visit 3",significant increases
same,"Finger Tap mean dominant and non-dominant hand, within-group change","[2]; 500 mg/day, visit 1 to visit 3",significant increases
same,"Finger Tap dominant and non-dominant hand difference scores, between groups","[2]; Placebo vs 500 mg/day, visit 1 to 3, p=0.16, p=0.64",no significant differences
same,"Finger Tap mean dominant and non-dominant hand, between groups","[2]; Placebo vs 500 mg/day, visit 3, p=0.68, p=0.88",No significant differences
same,"Finger Tap mean dominant hand difference scores, overall","[2]; three groups, p<0.01",significant differences
same,"Finger Tap mean non-dominant hand difference scores, overall","[2]; three groups, p=0.37",no significant differences
same,"Finger Tap mean dominant and non-dominant hand, overall analysis","[2]; three groups, visit 3, p=0.45, p=0.49",no significant differences
same,"Finger Tap dominant hand difference scores, post-hoc, 250 mg/day relative to Placebo",[2]; visit 1 to 3,greater differences in scores
same,"Finger Tap mean dominant hand difference score, 250 mg/day relative to Placebo","[2]; visit 1 to visit 3, p<0.01",significantly greater increases
same,"Finger Tap dominant hand difference score, 250 mg/day relative to 500 mg/day","[2]; visit 1 to visit 3, p=0.08",trend toward greater increases
same,"CPT difference scores (omission, commission, hit reaction time), between groups","[3]; 250 mg/day vs 500 mg/day, visit 1 to visit 3, p=0.93, 0.10, 0.68",no significant differences
same,"CPT omission errors, commission errors, hit reaction time, between groups","[3]; 250 mg/day vs 500 mg/day, visit 3, p=0.89, 0.45, 0.78",no significant differences
same,"CPT difference scores (omission, commission, hit reaction time), between groups","[3]; 250 mg/day vs Placebo, visit 1 to visit 3, p=0.75, 0.49, 0.12",no significant differences
same,"CPT omission errors, commission errors, hit reaction time, between groups","[3]; 250 mg/day vs Placebo, visit 3, p=0.39, 0.36, 0.79",no significant differences
same,"CPT commission errors, within-group change","[3]; 250 mg/day, visit 1 to 3, p=0.15",no changes
same,"CPT hit reaction time, within-group change","[3]; 250 mg/day, visit 1 to visit 3, p<0.01",significant difference
same,"CPT omission errors, within-group change","[3]; 250 mg/day, visit 1 to visit 3, p=0.08",trend toward a difference
same,"CPT commission errors and hit reaction time, within-group change","[3]; 500 mg/day, visit 1 to visit 3, p<0.01, p<0.01",significant difference
same,"CPT omission errors, within-group change","[3]; 500 mg/day, visit 1 to visit 3, p=0.06",trend toward a difference
same,"CPT difference scores (omission, commission, hit reaction time), between groups","[3]; Placebo vs 500 mg/day, visit 1 to visit 3, p=0.67, 0.35, 0.18",no significant differences
same,"CPT omission errors, commission errors, hit reaction time, between groups","[3]; Placebo vs 500 mg/day, visit 3, p=0.55, 0.87, 0.98",no significant differences
same,"CPT difference scores (omission, commission, hit reaction time), all three groups","[3]; p=0.46, 0.13, 0.12",no significant differences
same,"CPT omission errors, commission errors, hit reaction time, all three groups","[3]; visit 3, p=0.35, 0.31, 0.48",no significant between group differences
